No constants are given. Whether binding was seen depends on the method and setting. Some binding calls cover weakened binding; strength is not graded here.
T1: human OX40 expressed on cells (human, UniProt P43489 29-277)
T1 sequence: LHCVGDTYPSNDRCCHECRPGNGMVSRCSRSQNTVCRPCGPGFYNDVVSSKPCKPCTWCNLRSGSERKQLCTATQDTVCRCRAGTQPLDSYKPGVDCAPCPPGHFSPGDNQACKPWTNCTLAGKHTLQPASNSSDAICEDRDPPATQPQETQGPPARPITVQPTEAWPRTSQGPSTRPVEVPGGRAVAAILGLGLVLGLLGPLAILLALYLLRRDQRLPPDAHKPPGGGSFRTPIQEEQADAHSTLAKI

B1: Hu3738 (antibody, V domains shown)
VH: EVQLVESGGGLVQPGGSLRLSCAASGFTFSRYGMSWVRQAPGKGLELVATINSNGGRTYYPDSVKGRFTISRDNAKNSLYLQMNSLRAEDTAVYYCAREGITTAYAMDYWGQGTTVTVSS
VL: DIVMTQSPDSLAVSLGERATINCKASQSVDYDGDSYMHWYQQKPGQPPKLLIYAASILESGVPDRFSGSGSGTDFTLTISSLQAEDVAVYYCQQSNEDPRTFGGGTKVEIKR
notes: Humanized antibody; also called exemplary anti-OX40 antibody Hu3738; Hu3738 VH.1b / Hu3738 VL.1
B2: 106-222 (antibody, human IgG1, V domains shown)
VH: QVQLVQSGSELKKPGASVKVSCKASGYTFTDYSMHWVRQAPGQGLKWMGWINTETGEPTYADDFKGRFVFSLDTSVSTAYLQISSLKAEDTAVYYCANPYYDYVSYYAMDYWGQGTTVTVSS
VL: DIQMTQSPSSLSASVGDRVTITCKASQDVSTAVAWYQQKPGKAPKLLIYSASYLYTGVPSRFSGSGSGTDFTFTISSLQPEDIATYYCQQHYSTPRTFGQGTKLEIK
notes: 2013/0280275

What was measured:
[1] = target: 293s-huOX40-muCRDIV; assay: flow cytometry on 293s transfectants, Hu3738 added at 2 µg/mL, Cy5 donkey anti-human IgG
[2] = target: T1, human OX40 expressed on cells; assay: flow cytometry competition on Jurkat-NF-κB-huOX40 cells; competitor labeled Hu3738
[3] = target: T1, human OX40 expressed on cells; assay: competition by flow cytometry on Jurkat-NF-κB-huOX40 cells; competitor: ALEXA FLUOR 647-labeled Hu3738 at 2 µg/mL
Procedure: Analysis was performed by flow cytometry.

binding [1]	binding [2]	binding [3]	Binder
binds			B1
	binds	binds	B2

— patent US20210017289A1 (AbbVie / Abbott, published 2021)
